# Test results taken from US5854002A (Rhone Poulenc, Inc., priority 1996, dated 1998).
# At least one structure is not confirmed: it was looked up by name or label, or the drawing left a doubt.
# Target: Rat brain
# Assay: [3H] muscimol binding, rat brain (previous assays of the inventors)
# Conditions: half-maximal displacement of [3H] muscimol, previous assays by the inventors
# Text: Data from fly heads and rat brains were obtained as described in Table 2.
structure (smiles),measurement,value
O=S(=O)(O)C1CCNCC1 [Piperidine-4-sulfonate],IC50,297 nM
